This test deals with Salmonella enterica serovar Typhimurium SL1344. The test is described as follows: bacterial growth OD600 after 18 h with compound and polymyxin B; higher = more bacterial growth (less inhibition). The settings on record: 50 µM, Mueller-Hinton broth.

The structures appear in SMILES notation. The list shows a part of the results. Values are raw readings; no control value is given beside them.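 First-pass screen: polymyxin B was added at a level that permeabilizes the Salmonella outer membrane while sparing the inner membrane. DMSO wells, with and without polymyxin B, defined maximum growth. Because plates differed from one another, each plate's data were ranked separately and the compounds with the lowest OD600 were carried forward as hits.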

As to `CN(CCO)C(=O)C1CCCN(c2nc(-c3ccccc3)nc3c2CCC3)C1` (configuration not stated), the “bacterial growth OD600” value (polymyxin B 1 µg/mL) was found to be 0.908.
On the same count and under the same terms, then `COCCN1CCCC2(CCN(C(=O)CC3=CCCCC3)C2)C1=O` (configuration not stated), with 0.884.
As to `CCNCCC1CCC(=O)N1CCc1nc2ccccc2n1C` (configuration not stated), the “bacterial growth OD600” value (polymyxin B 0.75 µg/mL) turned out to be 0.979.
With `COc1ccc(-c2cnnc(NCCc3nc(C)c(C)s3)n2)cc1`, the “bacterial growth OD600” value (polymyxin B 0.75 µg/mL) was 0.757.
`O=C(c1csc2nc(-c3cccc(F)c3)cn12)N1CCCCCCC1`: the “bacterial growth OD600” value (polymyxin B 1 µg/mL) turned out to be 0.013.
With `C=CC[C@H]1CC(C)=C[C@H](CC=C)N1C(=O)CC1(c2cccc(OC)c2)CC(=O)N(CCOC)C1=O` (some centres not stated), the “bacterial growth OD600” value (polymyxin B 0.75 µg/mL) is 0.005.
Turning to `CCc1ccc(CN(C)C(=O)c2cc(COc3ccc4ncccc4c3)on2)nc1`, the “bacterial growth OD600” value (polymyxin B 1 µg/mL) worked out at 0.882.
Same read-out and setting: then `COc1ccc(Cc2noc(-c3ccc(N(C)C(C)c4ccon4)nc3)n2)cc1` (configuration not stated), with 0.775; and `CCN(Cc1nccn1C)C(=O)c1ccc(N2CCCC(C)C2)nc1` (configuration not stated), with 0.916.
The same measure, in the same setting: then `COCC1CCN(C(=O)c2cc(COc3cccc(C(F)(F)F)c3)[nH]n2)CC1`, with 1.15; and `CC(C)CC(=O)C(=O)NC1CC(=O)N(Cc2cccc3ccccc23)C1` (configuration not stated), with 0.823.
`COc1ccc(CCN2C(=O)O[C@@H]3CN(C4CCSCC4)C[C@@H]32)cc1`: the “bacterial growth OD600” value (polymyxin B 0.75 µg/mL) amounted to 0.825.
As for `O=C(NCC1CCCN(C(=O)CCN2CCCC2=O)C1)c1ccc(F)cc1` (configuration not stated), the “bacterial growth OD600” value (polymyxin B 1 µg/mL) came out at 0.945.
Regarding `COc1ccc2c(c1)OC(C)CN(Cc1ccccc1O)C2` (configuration not stated), the “bacterial growth OD600” value (polymyxin B 0.75 µg/mL) came out at 0.743.
For `CCCCNC(=O)NC1CCCc2nc(-c3ccccc3)ncc21` (configuration not stated), under “polymyxin B 0.75 µg/mL”, the “bacterial growth OD600” value turned out to be 0.749.
On the same count and under the same terms, in the case of `CN(C)CCN(CC1CCCN(Cc2ccccc2F)C1)C(=O)CN1CCCC1=O` (configuration not stated) it was 0.87; in that of `NC(=O)C1CCN(C(=O)CC(c2ccccc2)c2ccc3c(c2)OCO3)CC1` (configuration not stated), 0.854.
For `CC(=O)N1CCN(C(=O)CC(c2cccc(O)c2)c2ccccc2Cl)CC1` (configuration not stated), for the setting “polymyxin B 1 µg/mL”, the “bacterial growth OD600” value was determined as 0.832.
Still for that read-out and setting: then `CN(C)c1ncccc1CNC(=O)c1ccc2c(c1)OCCO2`, with 0.833; and `CCOC(=O)C1(Cc2ccccc2)CCN(Cc2cccc3c2OCO3)CC1`, with 0.759.
With `Cc1ccc2c(c1)CN(Cc1ccc(C)s1)CC(C)O2` (configuration not stated), under “polymyxin B 0.75 µg/mL”, the “bacterial growth OD600” value is 0.723.
Same read-out and setting: then `Cc1ccc(F)cc1CNC(=O)C1CC(=O)c2sc(NC(=O)c3c(F)cccc3Cl)nc2C1` (configuration not stated), with 0.284; and `CC#CCN1C(=O)NC(CCc2ccccc2)(C2CCN(Cc3ccc(OCCO)cc3)CC2)C1=O` (configuration not stated), with 0.798.
Take `Cc1ccccc1-n1cc(CN2C[C@H]3OC(=O)N(Cc4ccccn4)[C@H]3C2)cn1`: the “bacterial growth OD600” value (polymyxin B 0.75 µg/mL) was 0.792.
On to `CCOC(=O)C1(Cc2cccc(OC)c2)CCN(CC2CC=CCC2)CC1` (configuration not stated), for which the “bacterial growth OD600” value (polymyxin B 1 µg/mL) came out at 0.738.
Take `CN(C)C(=O)N1CCC(C(=O)N2CCCC(Nc3ccccc3)C2)CC1` (configuration not stated): under “polymyxin B 0.75 µg/mL”, the “bacterial growth OD600” value worked out at 0.862.
Same read-out and setting: then `CCOC(=O)N1CCN(Cc2ccc3c(c2)CN(C(=O)CCc2c(C)nn(C)c2C)CCO3)CC1`, with 1.
For `CC(C)(C)CN1CCC(N2CCCC(C(=O)NC3CC3)C2)CC1` (configuration not stated), the “bacterial growth OD600” value (polymyxin B 1 µg/mL) was found to be 0.896.
Still for that read-out and setting: then `CSc1nc(C(=O)N(C)C2CCCN(C3Cc4ccccc4C3)C2)cs1` (configuration not stated), with 0.947.
In the case of `CCCC(=O)NCC1Cc2cccc(-c3ncccc3C)c2O1` (configuration not stated), the “bacterial growth OD600” value (polymyxin B 0.75 µg/mL) turned out to be 0.817.
Regarding `CC(NCc1c(C(=O)N(C)Cc2ccccc2)nc2ccccn12)c1ccccc1` (configuration not stated), the “bacterial growth OD600” value (polymyxin B 1 µg/mL) was 0.687.
The same measure, in the same setting: then `COCCNC(=O)c1ccc(OC2CCN(Cc3ccco3)CC2)c(Cl)c1`, with 0.921.

These data come from the supplement of paper PMC12889115.
